Measurements from article PMC4538796.
The exact form of at least one protein or probe is not confirmed. For some of these results: No signal at the amounts used counts as a negative.

Protein sequences, listed by entry. Tags and fused reporters are not part of them. Lines headed by an entry give the natural chain unless they say otherwise; changes in a name come on top.
UniProt P03069: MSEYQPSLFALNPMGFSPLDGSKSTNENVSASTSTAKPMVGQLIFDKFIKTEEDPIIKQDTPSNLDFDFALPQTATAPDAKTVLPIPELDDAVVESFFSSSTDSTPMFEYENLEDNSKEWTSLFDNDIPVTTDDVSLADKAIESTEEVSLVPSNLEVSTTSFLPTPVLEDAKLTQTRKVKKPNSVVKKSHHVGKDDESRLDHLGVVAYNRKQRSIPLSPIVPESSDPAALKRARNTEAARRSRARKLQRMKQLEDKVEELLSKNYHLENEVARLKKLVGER

Tests used:
[1] = system: GAGAH (GAGA zinc finger/AT-Hook conjugate); experiment: EMSA; settings: EMSA: 75 nM dsDNA, rt (GAGAH), 10% native PAGE, 0.5x TBE, 20 C
[2] = molecular target: brH (GCN4 basic region/AT-Hook conjugate) (UniProt P03069); experiment: EMSA; settings: 75 nM DNA, EMSA: 75 nM dsDNA, rt (GAGAH), 10% native PAGE, 0.5x TBE, 20 C
[3] = molecular target: brH (GCN4 basic region/AT-Hook conjugate) (UniProt P03069); experiment: CD; settings: 5 uM peptide, 1 equiv DNA, phosphate pH 7.5, helix induction; CD: phosphate pH 7.5
[4] = up to 1000 nM peptide, no stable complex, barely any nonspecific complex

Row | Sequence | binding result [1, 4] | binding result ([1]; 0-1000 nM peptide, 75 nM DNA) | binding result ([2]; 0-1000 nM peptide) | binding result [3] | binding result ([2]; up to 1000 nM peptide)
1 | CGCGTCATAATTCGCGACGC (double strand) [AT·CG] | no binding |  |  |  | 
2 | CGCGTCATAATTGAGAGCGC (double strand) [AP1hs·AT = AT·GAGA] |  | binds | binds | binds | 
3 | CGCGTCATCAGCGAGAGCGC (double strand) [AP1hs·GC = GC·GAGA] | no binding |  |  |  | no binding
4 | GACGGAATTTGAGAGCGTCG (double strand) [GC·AT] |  |  |  |  | no binding
